The target in assay [1] is T1, StITPK1 (Solanum tuberosum, UniProt A4H2J0). Put plainly: Competition/inhibition of Ins(1,2,3,4,5)P5 5-phospho-kinase activity, HPLC. The format is biochemical. The conditions noted are these: 0.5 mM competing substrate/inhibitor, 1 mM Ins(1,2,3,4,5)P5, 3h experiment.
Assay [2] concerns the target T1, StITPK1. Put plainly: Fluorescence polarization displacement of 2-FAM-InsP5. The following applies: read-out: Ki for displacement of 2-FAM-InsP5; 2 nM 2-FAM-InsP5, 50 nM StITPK1, pH 6.5; Cheng-Prusoff with Kd 48 nM. The format is binding. An excerpt: To determine the relative strengths of binding of different inositol phosphate and inositol pyrophosphate substrates of StITPK1 we undertook fluorescence polarization experiments with 2-FAM-InsP5 [35]. […] A saturation curve for binding of 2-FAM-InsP5 to StITPK1 is shown (Figure S5) and displacement curves are shown for diverse inositol phosphates (Figure 2). The structures of these compounds are shown (Figure S1). […]
Fluorescence polarization (anisotropy)
A curve for binding of 2-FAM-InsP5 to StITPK1 was obtained by incubation of 2 nM 2-FAM-InsP5 [1] with increasing concentration (1-500 nM) of StITPK1 in 20 mM HEPES pH 6.5, 1 mM EDTA, 100 mM NaCl, after. Thereafter, displacement assays were performed by titration of inositol phosphate, inositol pyrophosphate […]
or analog thereof with 2 nM 2-FAM-InsP5 and 50 nM StITPK1. Compounds were tested for displacement in a range of 1 nM - 50 µM. Fluorescence polarization was measured in 384-well, black, low-binding plates, Corning product 3573. Binding and displacement curves (anisotropy) were log transformed and fitted to a 4-parameter logistic (in GraphPad Prism v.6 software (GraphPad Software Inc., San Diego, USA). Fitting of the […]
binding of 2-FAM-InsP5 to a specific one-site binding model in GraphPad Prism yielded a Kd of 48 nM.
Substituting the value of Kd for KM in the Cheng-Prusoff equation for competitive inhibition: […]

Protein sequences, listed by entry. Tags and fused reporters are not part of them. Residues count along the entry.
UniProt A4H2J0, 1-365: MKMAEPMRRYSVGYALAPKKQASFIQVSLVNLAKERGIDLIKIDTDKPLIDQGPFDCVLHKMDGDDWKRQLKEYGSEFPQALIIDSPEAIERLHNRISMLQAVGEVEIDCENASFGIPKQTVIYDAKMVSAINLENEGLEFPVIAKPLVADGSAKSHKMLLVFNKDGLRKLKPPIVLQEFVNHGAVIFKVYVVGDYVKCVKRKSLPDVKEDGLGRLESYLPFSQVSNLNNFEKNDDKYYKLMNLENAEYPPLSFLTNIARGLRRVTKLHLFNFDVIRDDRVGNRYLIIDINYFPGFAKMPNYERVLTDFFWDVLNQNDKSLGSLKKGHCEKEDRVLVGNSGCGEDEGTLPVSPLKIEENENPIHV

In assay [3] the target is T1, StITPK1. Put plainly: Kinase assay with ATP, HPLC of products. The format is biochemical. As to the method: Kinase assays were performed with ATP-regeneration as described for ATP-grasp kinases ITPK1/2 and VIH1/2 [2-3, 27-29], here in 20 mM HEPES pH 6.5, 1 mM MgCl2, 0.5 mM ATP and 1 mM inositol phosphate substrate. The low rate constants for phospho-kinase activity and the low sensitivity of NMR, PAGE and HPLC […]
assays demand long incubation times with high, but non-inhibitory concentrations of phospho-kinase substrates […]
[2-3, 27-29], here with or without 4 µM protein for 3h or 12h at 25 °C. Competition/inhibition assays were […]
performed under ATP-regenerating conditions with 0.5 mM ATP, 1 mM substrate, either Ins(1,2,3,4,5)P5 or […]
InsP6, and competitor, typically 0.5 mM, incubated with or without 3 µM protein for 2 h at 25 °C . […]
0.5 mM inositol pyrophosphate substrate incubated with 4 µM protein at 25 °C . HPLC analysis and detection of inositol phosphates by complexation with ferric ion was performed as described. Peak area data were analysed with the chromatography Jasco ChromNav v.2 software and x,y data were imported into GraphPad Prism v.6 software (GraphPad Software Inc., San Diego, USA) for plotting of chromatograms without additional processing of the data. […]

The match of structure and compound is tentative.

What is called % inhibition is the change of the read-out against control, counted positive when it falls. For orientation: Ki means the equilibrium dissociation constant of an inhibitor or competing ligand from its target.

`O=C(CP(=O)(O)O)OC1C(OP(=O)(O)O)C(OP(=O)(O)O)C(OP(=O)(O)O)C(OP(=O)(O)O)C1OP(=O)(O)O` (centres unmarked): the “% inhibition at 3h, Ins(1,2,3,4,5)P5 substrate” value at StITPK1 [1] is reported as 42%. Besides, the Ki on StITPK1 [2] amounted to 300 nM. Also, at StITPK1 [3] (1 mM substrate, 3h, 25°C), the “Product formation (3h)” value is given as 0 μM/μM protein. For the same compound, the “Product formation (12h)” value at StITPK1 [3] (1 mM substrate, 12h, 25°C) was 9 μM/μM protein. Further, the “kinase substrate status” value on StITPK1 [3] (with ATP, HPLC) is recorded as “very weak substrates”.

The values above are taken from publication PMC10765375, “Crystal structure and enzymology of Solanum tuberosum inositol tris/tetrakisphosphate kinase 1 (StITPK1)” (Biochemistry, 2023).
